Assay results reported in PMC11099078.

B1: HAUS8 (Augmin subunit, Xenopus laevis) (protein, UniProt Q0IHJ3 1-367)
chain: MSEAGVAPIEDGSQNSSGGSSGDAALKKSKGGAKVVKSRYMQIGRSKVSKNSLANTTVCSGGKVPERGSGGTPTRRSLAPHKAKITAAVPLPALDGSIFTKEDLQSTLLDGHRIARPDLDLSVINDRTLQKITPRPVVTSEQKKPKRDTTPVNLVPEDMVEMIESQTLLLTYLTIKMQKNLFRLEEKAERNLLLVNDQKDQLQETIHMMKRDLTLLQREERLRDLIEKQDEVLTPVVTSKDPFKDNYTTFATALDSTRHQLAIKNIHITGNRHRYLEELQKHLAITKSLLEEIMPSHASENAESFDTIKDLENIVLKTDEELARSFRQILDLSFKVNKEISLQSQKAVEETCESALVRQWYFDGSLP
B2: HAUS3 (Augmin subunit, Xenopus laevis) (protein, UniProt Q6DCY9 1-597)
chain: MSGGDRFVQTLQKLNYPKGAQLDGEDFDWLFEAVDLKPFLDWFCSAASEQNVVPDEKLQAFNTLKESGKPVLDEKALDEVLKTFSISKVPAIEEVAIEKLEEEVKALQKQKNLHIRRRNKLQMVESGNRQMCLKSKDKEEETGRAFQEVLHLLRVTNKKLNHELQSIVNGVQTLMSFFSTPETACELSSQPIFLSQLLLDKYLSLEEQSTAALTSFTKEHFFEGMSKFVEGSDENFQLVQLNVNSFGEDGTTEDKCKEMMRLQLAYICAKHKLIQMKAKSASLKVGLQWAENNASVVQDKASQKEENLKVRITSLKNETLQIENHTNSISNEKLPGLVRDNAQLLNMPIVKGDYDLQMAHQTSCSSRQDLVCDHLMKQKASFELLQLGYELELRKHRDVYRELGSIVQELKESGDKLEERLTMLSDVNLLSASKPRSNIDSKDLTSHRLYQLLDGDNTQKLFRTYDGLESVAQKLSQDIASMRDQLEVSEQEHSLLLSKLDSHLKELRDFMYPEGNTLMLTTPELSGEFHQLGSQLEKLNHITVEILGDLQLKRKMLESNKLQQIEKQLYVYFFQNEEQLKSIVGKLEAQTGGGSSA

Biological target: γ-tubulin (Xenopus laevis) (X. laevis (endogenous in egg extract)) (UniProt P23330)
Assay: affinity purification with mass spectrometry; γ-TuRC-capped MTs from Ran(Q69L)-induced X. laevis egg extract, Paclitaxel-stabilised, pelleted, shortened, held on anti-γ-tubulin antibody coupled to Dynabeads Protein A, washed with BRB80 with 100 mM NaCl, eluted with γ-tubulin C-terminal peptide; LC-MS/MS

Row | Binder | binding
1 | B1 | binds
2 | B2 | binds

No constants are given. Whether binding was seen depends on the method and setting. In cells and extracts the contact can be indirect. These calls come from enrichment with a bait or labelling near it, and not all partners need be listed.
